Data taken from the supplement of paper PMC6411743.
± gives the standard deviation of the averaged measurements. Only a part is listed here, and it is no random draw. Small differences around the control level are noise.

Sequences of proteins named here, by UniProt entry; tags and fusion partners are left off. A change or cut given only in a name is not applied to a line headed by its entry.
UniProt Q9Y3Q8: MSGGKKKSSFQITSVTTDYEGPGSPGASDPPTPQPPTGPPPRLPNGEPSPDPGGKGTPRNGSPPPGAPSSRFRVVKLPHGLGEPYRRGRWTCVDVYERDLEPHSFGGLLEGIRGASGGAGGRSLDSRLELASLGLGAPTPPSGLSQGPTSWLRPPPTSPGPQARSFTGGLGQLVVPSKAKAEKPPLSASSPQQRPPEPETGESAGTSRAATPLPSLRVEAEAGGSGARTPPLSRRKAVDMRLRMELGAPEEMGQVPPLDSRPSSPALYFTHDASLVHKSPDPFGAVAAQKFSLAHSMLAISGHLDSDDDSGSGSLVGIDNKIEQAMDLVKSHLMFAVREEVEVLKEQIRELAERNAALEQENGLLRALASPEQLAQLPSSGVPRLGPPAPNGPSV
UniProt Q9Y512: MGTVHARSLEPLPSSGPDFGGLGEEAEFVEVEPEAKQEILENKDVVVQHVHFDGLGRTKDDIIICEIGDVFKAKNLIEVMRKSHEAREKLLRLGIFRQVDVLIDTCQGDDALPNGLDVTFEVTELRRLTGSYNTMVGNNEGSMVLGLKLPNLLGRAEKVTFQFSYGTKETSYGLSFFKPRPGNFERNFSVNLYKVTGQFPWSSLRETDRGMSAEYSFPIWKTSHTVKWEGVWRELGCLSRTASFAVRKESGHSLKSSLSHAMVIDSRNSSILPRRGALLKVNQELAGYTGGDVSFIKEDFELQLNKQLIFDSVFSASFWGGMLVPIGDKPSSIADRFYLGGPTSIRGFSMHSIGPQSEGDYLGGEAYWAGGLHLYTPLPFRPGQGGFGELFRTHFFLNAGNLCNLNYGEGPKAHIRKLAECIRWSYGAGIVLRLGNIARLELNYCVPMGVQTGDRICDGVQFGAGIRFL
UniProt Q9Y3E2: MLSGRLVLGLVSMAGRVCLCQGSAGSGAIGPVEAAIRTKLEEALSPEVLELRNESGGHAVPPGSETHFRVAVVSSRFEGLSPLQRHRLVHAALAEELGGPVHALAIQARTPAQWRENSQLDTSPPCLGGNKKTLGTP
UniProt Q9Y5L0: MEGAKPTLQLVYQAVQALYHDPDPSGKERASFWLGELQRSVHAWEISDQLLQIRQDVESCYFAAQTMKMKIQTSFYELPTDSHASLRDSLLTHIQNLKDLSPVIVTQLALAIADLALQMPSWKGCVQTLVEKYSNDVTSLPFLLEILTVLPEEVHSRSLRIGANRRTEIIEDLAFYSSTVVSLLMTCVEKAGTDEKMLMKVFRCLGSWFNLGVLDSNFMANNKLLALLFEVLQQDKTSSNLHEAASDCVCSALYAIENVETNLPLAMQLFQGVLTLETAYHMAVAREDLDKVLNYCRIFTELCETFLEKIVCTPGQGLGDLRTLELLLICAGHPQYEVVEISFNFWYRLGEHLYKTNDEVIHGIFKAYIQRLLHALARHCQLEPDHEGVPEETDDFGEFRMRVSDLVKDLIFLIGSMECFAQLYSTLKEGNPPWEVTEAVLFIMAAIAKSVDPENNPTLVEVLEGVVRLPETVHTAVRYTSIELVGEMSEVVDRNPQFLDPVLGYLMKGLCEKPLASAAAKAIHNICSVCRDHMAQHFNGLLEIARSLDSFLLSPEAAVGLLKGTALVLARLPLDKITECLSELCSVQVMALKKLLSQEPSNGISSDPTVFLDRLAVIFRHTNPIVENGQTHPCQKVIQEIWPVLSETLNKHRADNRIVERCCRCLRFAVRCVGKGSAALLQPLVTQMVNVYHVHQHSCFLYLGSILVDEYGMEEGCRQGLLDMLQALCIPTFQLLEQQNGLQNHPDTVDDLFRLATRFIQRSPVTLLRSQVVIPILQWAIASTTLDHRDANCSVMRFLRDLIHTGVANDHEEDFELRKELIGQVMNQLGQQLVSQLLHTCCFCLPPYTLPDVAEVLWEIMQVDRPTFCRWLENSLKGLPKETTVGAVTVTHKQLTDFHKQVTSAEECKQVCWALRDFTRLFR
UniProt Q9Y3L5: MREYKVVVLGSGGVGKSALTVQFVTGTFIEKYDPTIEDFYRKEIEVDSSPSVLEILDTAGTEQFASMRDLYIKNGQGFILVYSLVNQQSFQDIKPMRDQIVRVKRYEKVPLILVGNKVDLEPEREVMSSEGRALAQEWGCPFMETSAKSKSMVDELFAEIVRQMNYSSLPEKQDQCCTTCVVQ
UniProt Q9Y6X8: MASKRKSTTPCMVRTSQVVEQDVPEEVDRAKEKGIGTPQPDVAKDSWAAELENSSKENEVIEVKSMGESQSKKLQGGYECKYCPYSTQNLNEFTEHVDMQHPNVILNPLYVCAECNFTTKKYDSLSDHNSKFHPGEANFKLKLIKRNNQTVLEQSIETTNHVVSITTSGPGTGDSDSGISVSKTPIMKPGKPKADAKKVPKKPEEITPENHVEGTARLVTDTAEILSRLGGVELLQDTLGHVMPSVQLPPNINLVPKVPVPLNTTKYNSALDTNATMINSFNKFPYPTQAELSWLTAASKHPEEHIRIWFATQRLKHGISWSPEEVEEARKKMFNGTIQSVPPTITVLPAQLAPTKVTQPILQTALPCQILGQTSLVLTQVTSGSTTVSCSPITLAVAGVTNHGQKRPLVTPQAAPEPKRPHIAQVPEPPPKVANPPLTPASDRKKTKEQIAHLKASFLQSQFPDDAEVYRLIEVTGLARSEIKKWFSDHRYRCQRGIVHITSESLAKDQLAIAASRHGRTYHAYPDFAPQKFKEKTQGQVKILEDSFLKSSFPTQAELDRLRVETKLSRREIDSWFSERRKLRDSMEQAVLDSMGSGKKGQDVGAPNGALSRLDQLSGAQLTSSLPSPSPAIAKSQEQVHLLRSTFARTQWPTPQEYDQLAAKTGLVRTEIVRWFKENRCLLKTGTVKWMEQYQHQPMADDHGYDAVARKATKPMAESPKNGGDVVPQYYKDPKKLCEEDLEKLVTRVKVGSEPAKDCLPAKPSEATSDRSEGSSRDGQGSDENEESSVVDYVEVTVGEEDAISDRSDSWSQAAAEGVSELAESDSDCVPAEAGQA
UniProt Q9Y6V7: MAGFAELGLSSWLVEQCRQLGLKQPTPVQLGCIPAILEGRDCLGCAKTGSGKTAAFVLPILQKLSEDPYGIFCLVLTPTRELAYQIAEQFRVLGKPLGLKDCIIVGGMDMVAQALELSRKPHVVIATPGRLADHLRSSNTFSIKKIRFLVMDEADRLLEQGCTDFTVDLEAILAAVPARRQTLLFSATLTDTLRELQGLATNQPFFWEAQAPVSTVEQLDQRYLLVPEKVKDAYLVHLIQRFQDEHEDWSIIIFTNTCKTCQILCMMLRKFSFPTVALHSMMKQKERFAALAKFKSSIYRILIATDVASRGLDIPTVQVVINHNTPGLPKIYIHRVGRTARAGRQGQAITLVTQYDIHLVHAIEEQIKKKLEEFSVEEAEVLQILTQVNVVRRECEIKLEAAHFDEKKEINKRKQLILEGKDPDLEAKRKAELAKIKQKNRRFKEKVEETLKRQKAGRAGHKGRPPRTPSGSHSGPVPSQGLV
UniProt Q9Y4Z0: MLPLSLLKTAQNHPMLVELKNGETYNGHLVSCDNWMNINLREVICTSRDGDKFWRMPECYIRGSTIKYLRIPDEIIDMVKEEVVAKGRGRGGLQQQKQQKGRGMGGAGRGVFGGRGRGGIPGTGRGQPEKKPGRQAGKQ
UniProt Q9Y613: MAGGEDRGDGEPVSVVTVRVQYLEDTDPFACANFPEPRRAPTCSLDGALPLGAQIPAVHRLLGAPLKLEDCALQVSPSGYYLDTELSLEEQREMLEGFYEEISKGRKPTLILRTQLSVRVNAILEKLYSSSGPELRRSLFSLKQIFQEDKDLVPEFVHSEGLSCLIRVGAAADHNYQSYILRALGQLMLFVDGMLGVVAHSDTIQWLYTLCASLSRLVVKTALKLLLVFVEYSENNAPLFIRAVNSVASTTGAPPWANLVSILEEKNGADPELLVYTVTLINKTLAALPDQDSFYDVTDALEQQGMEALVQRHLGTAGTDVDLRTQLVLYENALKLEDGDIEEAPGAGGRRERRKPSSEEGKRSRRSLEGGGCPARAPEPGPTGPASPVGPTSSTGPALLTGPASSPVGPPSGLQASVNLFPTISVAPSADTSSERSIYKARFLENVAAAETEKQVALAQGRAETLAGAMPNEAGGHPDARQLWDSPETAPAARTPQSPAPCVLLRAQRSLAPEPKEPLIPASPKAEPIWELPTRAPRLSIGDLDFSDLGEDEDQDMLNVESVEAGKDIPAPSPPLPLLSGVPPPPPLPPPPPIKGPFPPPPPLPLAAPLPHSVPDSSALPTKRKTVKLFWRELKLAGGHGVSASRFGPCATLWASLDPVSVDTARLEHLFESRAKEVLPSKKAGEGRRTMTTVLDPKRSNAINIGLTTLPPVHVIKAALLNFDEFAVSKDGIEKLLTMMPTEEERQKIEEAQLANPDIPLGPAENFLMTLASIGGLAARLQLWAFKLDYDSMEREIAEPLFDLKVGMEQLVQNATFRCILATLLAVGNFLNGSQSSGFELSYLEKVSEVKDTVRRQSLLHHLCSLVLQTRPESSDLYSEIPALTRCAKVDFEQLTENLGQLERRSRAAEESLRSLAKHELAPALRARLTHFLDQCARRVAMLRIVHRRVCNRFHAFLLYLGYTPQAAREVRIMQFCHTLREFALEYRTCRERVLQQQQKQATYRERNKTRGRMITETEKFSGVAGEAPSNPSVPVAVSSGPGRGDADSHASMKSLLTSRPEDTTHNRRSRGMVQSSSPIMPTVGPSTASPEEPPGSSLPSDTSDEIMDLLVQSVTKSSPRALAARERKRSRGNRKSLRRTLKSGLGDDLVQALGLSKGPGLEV
UniProt Q9Y4Y9: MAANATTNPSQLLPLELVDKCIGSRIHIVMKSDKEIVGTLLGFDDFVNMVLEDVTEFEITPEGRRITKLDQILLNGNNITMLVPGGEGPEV
UniProt Q9Y5Q8: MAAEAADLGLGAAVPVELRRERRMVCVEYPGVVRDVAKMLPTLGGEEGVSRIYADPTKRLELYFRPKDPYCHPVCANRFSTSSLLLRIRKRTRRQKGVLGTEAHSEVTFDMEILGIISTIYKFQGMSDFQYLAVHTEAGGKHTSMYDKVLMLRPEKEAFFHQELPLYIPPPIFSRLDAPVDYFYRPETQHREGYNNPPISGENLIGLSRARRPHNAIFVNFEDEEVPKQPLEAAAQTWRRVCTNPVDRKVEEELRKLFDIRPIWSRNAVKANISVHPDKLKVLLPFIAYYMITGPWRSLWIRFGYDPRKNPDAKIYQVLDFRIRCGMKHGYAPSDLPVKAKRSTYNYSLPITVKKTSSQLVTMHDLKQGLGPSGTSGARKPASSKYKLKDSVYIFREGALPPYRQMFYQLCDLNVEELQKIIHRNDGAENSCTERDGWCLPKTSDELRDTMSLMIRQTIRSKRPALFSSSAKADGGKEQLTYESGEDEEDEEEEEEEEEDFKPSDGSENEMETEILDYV
UniProt Q9NXR5: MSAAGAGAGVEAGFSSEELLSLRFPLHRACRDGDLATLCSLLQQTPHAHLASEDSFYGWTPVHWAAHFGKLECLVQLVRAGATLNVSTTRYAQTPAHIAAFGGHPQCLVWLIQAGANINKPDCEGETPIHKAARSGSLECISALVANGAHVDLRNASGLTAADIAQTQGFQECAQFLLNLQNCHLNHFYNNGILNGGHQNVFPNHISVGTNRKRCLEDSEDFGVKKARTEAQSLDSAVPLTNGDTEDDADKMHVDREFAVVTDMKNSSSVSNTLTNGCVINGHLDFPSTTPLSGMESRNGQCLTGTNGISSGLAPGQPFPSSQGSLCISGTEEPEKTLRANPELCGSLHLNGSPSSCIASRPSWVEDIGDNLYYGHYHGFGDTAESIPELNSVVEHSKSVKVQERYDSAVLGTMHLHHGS
UniProt Q9Y3F4: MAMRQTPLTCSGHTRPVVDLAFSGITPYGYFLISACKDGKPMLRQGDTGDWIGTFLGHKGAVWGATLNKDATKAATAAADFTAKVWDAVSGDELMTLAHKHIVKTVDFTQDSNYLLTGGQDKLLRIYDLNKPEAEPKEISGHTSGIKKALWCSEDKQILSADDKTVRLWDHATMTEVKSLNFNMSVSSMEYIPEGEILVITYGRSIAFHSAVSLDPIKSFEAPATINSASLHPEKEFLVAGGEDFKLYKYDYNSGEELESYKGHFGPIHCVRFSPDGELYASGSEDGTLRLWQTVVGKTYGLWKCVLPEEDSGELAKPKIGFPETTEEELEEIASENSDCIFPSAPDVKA
UniProt Q9Y697: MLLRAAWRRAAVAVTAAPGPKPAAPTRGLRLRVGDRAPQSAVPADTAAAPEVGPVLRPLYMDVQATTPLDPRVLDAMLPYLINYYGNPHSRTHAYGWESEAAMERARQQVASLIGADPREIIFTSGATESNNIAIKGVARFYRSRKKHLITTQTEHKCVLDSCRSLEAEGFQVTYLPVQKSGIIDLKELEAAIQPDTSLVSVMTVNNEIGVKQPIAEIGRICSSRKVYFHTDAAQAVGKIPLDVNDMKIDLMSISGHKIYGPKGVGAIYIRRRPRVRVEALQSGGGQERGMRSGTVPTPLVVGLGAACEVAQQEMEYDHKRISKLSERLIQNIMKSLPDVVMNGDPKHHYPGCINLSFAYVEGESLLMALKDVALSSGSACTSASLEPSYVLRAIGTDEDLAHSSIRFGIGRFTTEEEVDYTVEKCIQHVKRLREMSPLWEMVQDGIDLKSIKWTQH

Compound: Nc1ncnc2c1ncn2[C@@H]1O[C@H](COP(=O)(O)OP(=O)(O)NP(=O)(O)O)[C@@H](O)[C@H]1O [adenylyl imidodiphosphate]
Experiment: NP40-soluble protein abundance relative to vehicle (solubility fold change) (ratio); higher = more soluble protein in presence of AMP-PNP
In short: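 Across three independent experiments, values are fold changes against the detergent-processed vehicle for each replicate, based on vsn-normalised intensities. The samples were Jurkat crude lysate treated with eight concentrations (0.1 to 10 mM) for 10 min at room temperature and then 3 min at 37 °C. Lysate was solubilised with 0.8% NP40 and benzonase, ultracentrifuged, and the supernatant analysed by TMT-labelled LC-MS/MS.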

Target	NP40-soluble protein abundance (concentration: 0.1mM)	NP40-soluble protein abundance (concentration: 0.5mM)
UniProt Q9Y3I1 and related entries	0.992 ± 0.019	0.981 ± 0.018
NOC2L (UniProt Q9Y3T9)	1.01 ± 0.026	1.04 ± 0.013
R4GMR5 and related entries (UniProt P48556)	1.03 ± 0.033	0.976 ± 0.1
CCDC9 (UniProt Q9Y3X0)	1 ± 0.025	1.02 ± 0.034
UniProt Q9Y679 and related entries	1.01 ± 0.037	0.999 ± 0.068
TSC22D4 (UniProt Q9Y3Q8)	0.9968 ± 0.0083	0.987 ± 0.056
ATP6V0A2 (UniProt Q9Y487)	1.02 ± 0.023	1.01 ± 0.025
SAMM50 (UniProt Q9Y512)	1.08 ± 0.049	0.954 ± 0.15
BOLA1 (UniProt Q9Y3E2)	0.9936 ± 0.0088	0.995 ± 0.027
MRPS18B (UniProt Q9Y676)	0.977 ± 0.035	0.972 ± 0.025
UniProt Q9Y5L0 and related entries	1.01 ± 0.028	1.02 ± 0.04
UniProt Q9Y3L5	1.01 ± 0.018	1.04 ± 0.058
ZHX2 (UniProt Q9Y6X8)	1.01 ± 0.023	1.007 ± 0.0036
R4GMX3 and related entries (UniProt Q9UBI1)	1.03 ± 0.018	0.963 ± 0.025
UniProt Q9Y4P1 and related entries	0.993 ± 0.032	0.993 ± 0.011
DDX49 (UniProt Q9Y6V7)	1.03 ± 0.035	1.05 ± 0.055
UniProt Q9Y5K5 and related entries	1.03 ± 0.022	0.967 ± 0.044
SNX5 (UniProt Q9Y5X3)	0.998 ± 0.032	1.01 ± 0.068
TRAF6 (UniProt Q9Y4K3)	1.01 ± 0.013	0.976 ± 0.016
UniProt Q9Y4Z0 and related entries	0.994 ± 0.064	1.05 ± 0.15

Whole records as entered above. Values in the order: NP40-soluble protein abundance (concentration: 0.1mM)	NP40-soluble protein abundance (concentration: 0.5mM)
UniProt Q9Y3I1 and related entries is listed as 0.992 ± 0.019	0.981 ± 0.018
ATP6V0A2 (UniProt Q9Y487) is listed as 1.02 ± 0.023	1.01 ± 0.025
TRAF6 (UniProt Q9Y4K3) is listed as 1.01 ± 0.013	0.976 ± 0.016

Later entries.

Target	NP40-soluble protein abundance (concentration: 0.1mM)	NP40-soluble protein abundance (concentration: 0.5mM)
UniProt Q9Y6M7-13|Q9Y6M7-6	0.963 ± 0.026	0.9827 ± 0.007
UniProt Q9Y5W8 and related entries	1.01 ± 0.011	1 ± 0.042
FHOD1 (UniProt Q9Y613)	1.01 ± 0.024	0.982 ± 0.055
LSM5 (UniProt Q9Y4Y9)	1.06 ± 0.05	1.05 ± 0.094
DYNC1LI1 (UniProt Q9Y6G9)	1.01 ± 0.045	1.01 ± 0.061
UniProt Q9Y678	1.02 ± 0.011	0.999 ± 0.06
SEC23IP (UniProt Q9Y6Y8)	0.977 ± 0.041	1.01 ± 0.03
CAPN7 (UniProt Q9Y6W3)	0.989 ± 0.028	0.963 ± 0.021
UniProt Q9Y5Q8 and related entries	1.01 ± 0.042	0.956 ± 0.042
UniProt Q9Y680 and related entries	0.969 ± 0.018	1 ± 0.029
S4R3R2 (UniProt Q9NXR5)	1.01 ± 0.029	0.992 ± 0.055
TLN1 (UniProt Q9Y490)	0.9808 ± 0.007	0.998 ± 0.021
UniProt Q9Y3F4 and related entries	0.984 ± 0.014	1.015 ± 0.0089
UniProt Q9Y697 and related entries	1 ± 0.028	1.01 ± 0.045
UniProt Q9Y3Y2 and related entries	1.02 ± 0.066	0.982 ± 0.032
ALG5 (UniProt Q9Y673)	0.991 ± 0.04	0.975 ± 0.049
SPIN1 (UniProt Q9Y657)	1.03 ± 0.03	1.04 ± 0.065
UniProt Q9Y6X9 and related entries	1.06 ± 0.068	1.08 ± 0.031
UniProt Q9Y4B5 and related entries	1 ± 0.011	0.996 ± 0.015
